The values that follow come from paper PMC9927451.

To fix the notation:
B1: HupB, endogenous (protein, UniProt P05384 1-90)
chain: MNKSELIDAIAASADIPKAVAGRALDAVIESVTGALKAGDSVVLVGFGTFAVKERAARTGRNPQTGKPIKIAAAKIPGFKAGKALKDAVN
B2: PA4465, endogenous (protein, UniProt Q9HVV3 1-286)
chain: MRLIIVSGRSGSGKSTALNVLEDNGFYCIDNLPASLLPDLAQRALLHTELLQPQVAVSIDARNLPSQLQRFPELLQEVRDNHINCDVLYLDADDETLLKRFSETRRRHPLTTDTRSLAEAIGDESQLLGPIADLADLKLDTTSLNLYQLRDTIKLRLLNKPEPGTAFLVESFGFKRGMPVDADLVFDVRCLPNPYWKPELRDHSGLEPEVREYLAAQPDVEEMYQDIVGYLNKWLPRFAASNRSYVTVAIGCTGGHHRSVYLAERIGAALRDSLKNVQIRHRDLSS
B3: PA1533, endogenous (protein, UniProt Q9I3I0 1-108)
chain: MMKGGMAGLMKQAQQMQEKMQKMQEELANAEVTGQSGAGLVSVVMTGRHDVKRVSLDDSLMQEDKEILEDLIAAAVNDAVRKIEQNNQEKMSGFTSGMQLPPGFKMPF
B4: ParC (PA4964), endogenous (protein, UniProt Q9HUK1 1-754)
chain: MSESLDLSLEGVERRSLAEFTEQAYLNYSMYVIMDRALPHIGDGLKPVQRRIVYAMSELGLDADSKHKKSARTVGDVLGKFHPHGDSACYEAMVLMAQPFSYRYPLVDGQGNWGAPDDPKSFAAMRYTEARLSRYSEVLLSELGQGTVDWVPNFDGTLDEPAVLPARLPNLLLNGTTGIAVGMATDVPPHNLREVASACVRLLDQPGATVAELCEHVPGPDFPTEAEIITPRADLQKVYETGRGSVRMRAVYRVEDGDIVIHALPHQVSGSKVLEQIAGQMQAKKLPMVADLRDESDHENPTRIVIIPRSNRVDVEELMTHLFATTDLETSYRVNLNIIGLDGKPQVKDLRQLLSEWLQFRIGTVRRRLQFRLDKVERRLHLLDGLLIAFLNLDEVIHIIRTEDQPKAVLMERFELSEVQADYILDTRLRQLARLEEMKIRGEQEELLKEQKRLQTLLGSEAKLKKLVREELIKDAETYGDDRRSPIVARAEARALSETELMPTEPVTVVLSEKGWVRCAKGHDIDAAGLSYKAGDGFKAAAPGRSNQYAVFIDSTGRSYSLPAHSLPSARGQGEPLSGRLTPPPGASFECVLLPDDDALFVIASDAGYGFVVKGEDLQAKNKAGKALLSLPNGSAVVAPRPVRDVEQDWLAAVTTEGRLLLFKVSDLPQLGKGKGNKIIGIPGERVASREEYLTDLAVLPAGATLVLQAGKRTLSLKGDDLEHYKGERGRRGNKLPRGFQRVDSLLVDIPPQD
B5: PmpR (PA0964), endogenous (protein, UniProt Q51423 1-248)
chain: MAGHSKWANIKHRKERQDAKKGKIFTKLIRELTVAARQGGGVPADNPRLRLAVDKALTANMTRDTIDRAIARGVGSNDADNMVELSYEGYAPSGVAIIVEAMTDNRNRTAAEVRHAFSKCGGNLGTDGSVAYMFERKGQISFAPGVDEEALMDAALEAGADDVVVNDDGSIDVFTTFADFISVNEALAAAGFKGDEAEVTMIPSTTATLDLETAQKVLKLIDMLEDLDDVQNVYSNADIPDDVMAQLG
B6: NdpA (PA3849), endogenous (protein, UniProt Q9HXF7 1-334)
chain: MPIHHAIVHLIEKKPDGTPAVLHARDAELGDSQAIENLLADLNESYNAKNKAWGFFQGESGAYPFSGWLGEYLEGDRDFVGFSREAVEHLQKLMEESNLSTGGHILFAHYQQGMTDYLAIALLHHSEGVAVNESLEVTPSRHLDLGQLHLAARINISEWRNNKQSKQYISFIKGKGGKKVSDYFRDFIGCQEGVDSPSETRTLLKAFSDFVESEDMAEEQAREKTETLVDYATSQARIGEPMTLDALSELMDDQQPRAFYDYIRNKDYGLSPEIPADKRTLNQFRRFTGRAEGLSISFEAHLLGSKVEYDEERDMLIIRQLPTQLKDQLKRRKD
B7: NadE (PA4920), endogenous (enzyme, UniProt Q9HUP3 1-275)
chain: MQQIQRDIAQALQVQPPFQSEADVQAQIARRIAFIQQCLKDSGLKTLVLGISGGVDSLTAGLLAQRAVEQLREQTGDQAYRFIAVRLPYQVQQDEADAQASLATIRADEEQTVNIGPSVKALAEQLEALEGLEPAKSDFVIGNIKARIRMVAQYAIAGARGGLVIGTDHAAEAVMGFFTKFGDGACDLAPLSGLAKHQVRALARALGAPENLVEKIPTADLEDLRPGHPDEASHGVTYAEIDAFLHGQPLREEAARVIVDTYHKTQHKRELPKAP
B8: ClpP2, endogenous (enzyme, UniProt Q9HYR9 1-201)
chain: MKTDDKDREGGDSHGAIGAKLMEYALKVRKVFVTGGVDEKMAKDVVQQLHILASISDDPIYMFVNSPGGHVESGDMIFDAIRFITPKVIMIGSGSVASAGALIYAAADKENRYSLPNTRFLLHQPSGGIQGPASNIEIYRREIVRMKERLDRIFAEATGQTPEKISADTERDFWLNAEEAVQYGLVNKIIVSEREITLPGQ
B9: GlyA3 (PA4602), endogenous (enzyme, UniProt Q9HVI7 1-417)
chain: MFSRDLTLARYDAELFAAMEQEAQRQEEHIELIASENYTSPAVMEAQGSVLTNKYAEGYPHKRYYGGCEYVDIVEQLAIDRAKQLFGADYANVQPHAGSQANAAVYLALLSAGDTILGMSLAHGGHLTHGASVSSSGKLYNAVQYGIDANGLIDYDEVERLAVEHKPKMIVAGFSAYSQVLDFARFRAIADKVGAYLFVDMAHVAGLVAAGVYPNPVPFADVVTTTTHKTLRGPRGGLILARANEEIEKKLNSAVFPSAQGGPLEHVIAAKAVCFKEALQPEFKTYQQQVLKNAQSMAQVFLDRGFDVVSGGTQNHLFLLSLIKQDITGKDADAALGRAFITVNKNSVPNDPRSPFVTSGLRIGTPAVTTRGFKEAECRELAGWICDILENMGDESVVDGVREKVKAICAKFPVYGN
B10: PyrG (PA3637), endogenous (enzyme, UniProt Q9HXZ4 1-542)
chain: MTRYIFVTGGVVSSLGKGIASASLAAILEARGLKITMLKLDPYINVDPGTMSPFQHGEVFVTQDGAETDLDLGHYERFVRTTMTQNNNFTTGRVYMDVLRKERRGDYLGATVQVIPHITDEIKRRIIKGAGDADVALVEIGGTVGDIESQPFLEAIRQLRVEIGAKRAMLMHLTLVPYIATAGETKTKPTQHSVKELRSIGLQPDVLVCRSDHPIDVSSRRKIALFTNVEERAVIALEDVDTIYRIPSVLHAQGLDDIVVERFGLECGQADLSEWDRVVDAKLNPEREVTIAMVGKYMELLDAYKSLIEAMTHAGIQSRTKVNLRYIDSEDIEQQGTSLLEGVDAILVPGGFGLRGVEGKISTVQYARENKIPYLGICLGMQVAVIEYARNVLGWSDANSTEFDKSSGHPVVGLITEWQDATGATEIRTEASDLGGTMRLGAQECQLQTGTLVHDCYAKDVIVERHRHRYEVNNNLLPQLEQAGLKISGRSGDGALVEVVEAPEHPWFVACQFHPEFTSTPRDGHPLFSGFVNAALKYSGKA
B11: ArcB (PA5172), endogenous (enzyme, UniProt P08308 1-336)
chain: MAFNMHNRNLLSLMHHSTRELRYLLDLSRDLKRAKYTGTEQQHLKRKNIALIFEKTSTRTRCAFEVAAYDQGANVTYIDPNSSQIGHKESMKDTARVLGRMYDAIEYRGFKQEIVEELAKFAGVPVFNGLTDEYHPTQMLADVLTMREHSDKPLHDISYAYLGDARNNMGNSLLLIGAKLGMDVRIAAPKALWPHDEFVAQCKKFAEESGAKLTLTEDPKEAVKGVDFVHTDVWVSMGEPVEAWGERIKELLPYQVNMEIMKATGNPRAKFMHCLPAFHNSETKVGKQIAEQYPNLANGIEVTEDVFESPYNIAFEQAENRMHTIKAILVSTLADI

No constants are given. Whether binding was seen depends on the method and setting. In cells and extracts the contact can be indirect. A yes stands for co-enrichment or nearness to the bait. Other partners may have been found.

This assay concerns the target FLAG-ParB (P. aeruginosa). As to the kind of experiment: affinity purification with mass spectrometry; clarified lysates of P. aeruginosa with flag-parB (WT strain as control) on Dynabeads coupled with anti-FLAG antibodies; washed with 1x IP buffer; eluted with 0.1 M glycine pH 3.5; mass spectrometry.
For the molecule B1, the binding result is “binds”.
With B2, the binding result is “binds”.
The entry for B3 is “binds”; for B4 it is “binds”.
Next, B5: “binds”.
Regarding B6, the binding entry is on record as “binds”.
Next, B7: “binds”; B8: “binds”.
The entry for B9 is “binds”.
As for B10, the binding result was “binds”.
B11: the binding result was “binds”.
